Measurements reported in PubChem BioAssay AID652259 (Drosophila RNAi Screening Center, 2013)
Screen: 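Genome-wide hunt for genes that control Wingless pathway activity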 (primary screen). Cells: Drosophila clone 8 imaginal disc epithelial cells. Reagent: long dsRNA against Drosophila genes. Treatment: pathway stimulated by co-transfected Wingless expression plasmid. Measurement: 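Dual luciferase reads per well after Wingless plasmid stimulation: reporter firefly light and Renilla control light; activity is firefly divided by Renilla, a ratio not deposited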. Direction: firefly reporter light: higher = more Wg reporter light, before normalisation; Renilla control light: higher = more transfected or surviving cells. Call rule: 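a knock-down is a candidate when at least two out of four statistical tests show it departing from its plate mean; one test alone signals a weak candidate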. Calls: active = candidate regulator (raises or lowers reporter); inactive = not a candidate.
The deposit covers about 22,000 reagents; below is a random part of those that have a named target and a result. In the full data, 233 (1.1%) got an active call. 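Light values are raw, unnormalised plate reads; the ratio scores behind the reporter calls were not deposited.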 The numbers tell different reagents against one gene apart. The record does not give: the amount of reagent, the time to read-out, the dose of the treatment.

What is on record for Rrp46?
firefly reporter light, replicate 1: 19901; Renilla control light, replicate 1: 3780; Call: inactive

What did the screen give for ref(2)P (refractory to sigma P)?
firefly reporter light, replicate 1: 1557; firefly reporter light, replicate 2: 6195; Renilla control light, replicate 1: 652; Renilla control light, replicate 2: 2565; Call: inactive

What is on record for Coq6 (Coenzyme Q6)?
firefly reporter light, replicate 1: 8216; Renilla control light, replicate 1: 2572; Call: inactive

With trp (transient receptor potential), what was measured?
firefly reporter light, replicate 1: 5945; Renilla control light, replicate 1: 2487; Call: inactive

Which result is listed for CG1827?
firefly reporter light, replicate 1: 5994; Renilla control light, replicate 1: 1856; Call: inactive

What is on record for Rcd6 (Reduction in Cnn dots 6)?
firefly reporter light, replicate 1: 12633; Renilla control light, replicate 1: 4034; Call: inactive

What is on record for mRpL46 (mitochondrial ribosomal protein L46)?
firefly reporter light, replicate 1: 6720; Renilla control light, replicate 1: 2625; Call: inactive

With CG42814, what was measured?
firefly reporter light, replicate 1: 5162; Renilla control light, replicate 1: 1820; Call: inactive

For daw (dawdle), what does the deposit list?
firefly reporter light, replicate 1: 11153; Renilla control light, replicate 1: 4378; Call: inactive

For GstO2 (Glutathione S transferase O2), what was measured?
firefly reporter light, replicate 1: 2891; Renilla control light, replicate 1: 1545; Call: inactive

How did the screen score CG3502?
firefly reporter light, replicate 1: 10425; Renilla control light, replicate 1: 2248; Call: inactive

A run of entries from the list above, as a working copy:
daw (dawdle): firefly reporter light, replicate 1 = 11153; Renilla control light, replicate 1 = 4378; Call = inactive
GstO2 (Glutathione S transferase O2): firefly reporter light, replicate 1 = 2891; Renilla control light, replicate 1 = 1545; Call = inactive

Next records:
What is on record for CG15368?
firefly reporter light, replicate 1: 16171; Renilla control light, replicate 1: 4372; Call: inactive

For Reg-5 (Rhythmically expressed gene 5), how do the results read?
firefly reporter light, replicate 1: 12218; Renilla control light, replicate 1: 2845; Call: inactive

For CG10809, what was measured?
firefly reporter light, replicate 1: 8525; Renilla control light, replicate 1: 3106; Call: inactive

With CG4537, what was measured?
firefly reporter light, replicate 1: 3411; firefly reporter light, replicate 2: 7803; Renilla control light, replicate 1: 1107; Renilla control light, replicate 2: 3456; Call: inactive

What did the screen give for Vps4 (Vacuolar protein sorting 4)?
reporter change call, replicate 1: Wg reporter activity raised; firefly reporter light, replicate 1: 4556; firefly reporter light, replicate 2: 14823; Renilla control light, replicate 1: 493; Renilla control light, replicate 2: 2417; Call: active

Which result is listed for CG32032?
firefly reporter light, replicate 1: 2362; Renilla control light, replicate 1: 1387; Call: inactive

What did the screen give for CG14332?
firefly reporter light, replicate 1: 18064; Renilla control light, replicate 1: 4824; Call: inactive

What is on record for mts (microtubule star)?
firefly reporter light, replicate 1: 13904; Renilla control light, replicate 1: 2712; Call: inactive

What did the screen give for CG17839 #1?
firefly reporter light, replicate 1: 5201; Renilla control light, replicate 1: 2208; Call: inactive

For CG17839 #2, how do the results read?
firefly reporter light, replicate 1: 5187; Renilla control light, replicate 1: 2471; Call: inactive

Which result is listed for CG11596?
firefly reporter light, replicate 1: 2119; firefly reporter light, replicate 2: 8282; Renilla control light, replicate 1: 1050; Renilla control light, replicate 2: 2269; Call: inactive

What is on record for CG14096?
firefly reporter light, replicate 1: 16756; firefly reporter light, replicate 2: 7.71e5; Renilla control light, replicate 1: 6781; Renilla control light, replicate 2: 3.19e5; Call: inactive

What did the screen give for Cpr5C (Cuticular protein 5C)?
firefly reporter light, replicate 1: 24560; Renilla control light, replicate 1: 12053; Call: inactive

For shot (short stop) #1, how do the results read?
firefly reporter light, replicate 1: 15362; Renilla control light, replicate 1: 9736; Call: inactive

What is on record for shot (short stop) #2?
firefly reporter light, replicate 1: 16359; Renilla control light, replicate 1: 13020; Call: inactive

What is on record for shot (short stop) #3?
firefly reporter light, replicate 1: 16427; Renilla control light, replicate 1: 4032; Call: inactive
